From publication PMC10809671
Results are given in words; binding and its absence hold for the method and conditions named. In cells and extracts the contact can be indirect. A result given as binding can be weak or reduced; the word gives no strength. Where a sequence is shown, tags or fusion partners need not be part of it.

The chains behind the UniProt entries cited, without tags or fusion partners. Where a name states a change or a piece, a line headed by the entry shows the natural chain unless it says otherwise.
UniProt P47756: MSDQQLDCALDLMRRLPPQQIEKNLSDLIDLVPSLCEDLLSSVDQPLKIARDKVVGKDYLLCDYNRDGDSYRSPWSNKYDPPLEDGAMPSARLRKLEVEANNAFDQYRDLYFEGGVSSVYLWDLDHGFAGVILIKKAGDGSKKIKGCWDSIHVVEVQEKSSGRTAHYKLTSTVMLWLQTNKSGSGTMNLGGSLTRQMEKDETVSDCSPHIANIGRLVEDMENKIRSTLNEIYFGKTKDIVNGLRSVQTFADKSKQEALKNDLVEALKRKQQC
UniProt Q9UJ41: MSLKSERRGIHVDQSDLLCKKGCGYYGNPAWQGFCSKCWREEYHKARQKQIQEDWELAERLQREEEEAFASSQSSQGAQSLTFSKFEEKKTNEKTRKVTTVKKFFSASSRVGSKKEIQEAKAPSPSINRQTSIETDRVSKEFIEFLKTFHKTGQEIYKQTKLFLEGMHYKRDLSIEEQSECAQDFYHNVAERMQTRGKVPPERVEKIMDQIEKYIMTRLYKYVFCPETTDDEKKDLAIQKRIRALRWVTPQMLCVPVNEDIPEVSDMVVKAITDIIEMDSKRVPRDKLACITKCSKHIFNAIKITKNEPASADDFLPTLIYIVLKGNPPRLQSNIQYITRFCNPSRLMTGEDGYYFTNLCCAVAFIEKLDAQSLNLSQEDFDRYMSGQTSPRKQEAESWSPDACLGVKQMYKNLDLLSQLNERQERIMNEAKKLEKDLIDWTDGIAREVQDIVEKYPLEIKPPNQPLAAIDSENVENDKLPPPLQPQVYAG

Biological target: Myc-CapZβ (UniProt P47756)
Assay: co-IP; HEK 293T cells co-transfected with Myc-CapZβ and the tagged partner, treated with DMSO or V1 (1 μM) for 12 h; lysis buffer 50 mM Tris-HCl pH 7.5, 150 mM NaCl, 1 mM EDTA, 1% Triton X-100; lysate on anti-c-Myc magnetic beads at 4 °C overnight; immunoblot against HA or Flag tag

Row | Molecule | binding
1 | HA-Rabex-5 (from UniProt Q9UJ41 1-491) | binds
2 | Flag-Rabaptin-5 (protein, UniProt Q15276 1-862) MAQPGPASQPDVSLQQRVAELEKINAEFLRAQQQLEQEFNQKRAKFKELYLAKEEDLKRQNAVLQAAQDDLGHLRTQLWEAQAEMENIKAIATVSENTKQEAIDEVKRQWREEVASLQAVMKETVRDYEHQFHLRLEQERTQWAQYRESAEREIADLRRRLSEGQEEENLENEMKKAQEDAEKLRSVVMPMEKEIAALKDKLTEAEDKIKELEASKVKELNHYLEAEKSCRTDLEMYVAVLNTQKSVLQEDAEKLRKELHEVCHLLEQERQQHNQLKHTWQKANDQFLESQRLLMRDMQRMEIVLTSEQLRQVEELKKKDQEDDEQQRLNKRKDHKKADVEEEIKIPVVCALTQEESSAQLSNEEEHLDSTRGSVHSLDAGLLLPSGDPFSKSDNDMFKDGLRRAQSTDSLGTSGSLQSKALGYNYKAKSAGNLDESDFGPLVGADSVSENFDTASLGSLQMPSGFMLTKDQERAIKAMTPEQEETASLLSSVTQGMESAYVSPSGYRLVSETEWNLLQKEVHNAGNKLGRRCDMCSNYEKQLQGIQIQEAETRDQVKKLQLMLRQANDQLEKTMKDKQELEDFIKQSSEDSSHQISALVLRAQASEILLEELQQGLSQAKRDVQEQMAVLMQSREQVSEELVRLQKDNDSLQGKHSLHVSLQQAEDFILPDTTEALRELVLKYREDIINVRTAADHVEEKLKAEILFLKEQIQAEQCLKENLEETLQLEIENCKEEIASISSLKAELERIKVEKGQLESTLREKSQQLESLQEIKISLEEQLKKETAAKATVEQLMFEEKNKAQRLQTELDVSEQVQRDFVKLSQTLQVQLERIRQADSLERIRAILNDTKLTDINQLPET | binds
